Small differences around the control level are noise.
Experiments:
Experiment in all cases: normalised response (% of control), CellTox Green; higher = less cell death (100 = DMSO, 0 = benzethonium chloride kill control)
Details in all cases: incubation time: 72 h
[1] = system: MDA-MB-468
Experimental: (§1)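 DSRT, 72 h incubation, CellTox Green / CellTiter-Glo readout. Signal is normalised to DMSO and benzethonium chloride controls. Value is the normalised response at the lowest tested concentration.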

[2] = system: CAL-120
Experimental: as §1

[3] = system: HCC1937
Experimental: as §1

[4] = system: HCC1143
Experimental: as §1

[5] = system: BT-549
Experimental: as §1

[6] = system: HCC1599
Experimental: as §1

[7] = system: MDA-MB-436
Experimental: as §1

[8] = system: HDQ-P1
Experimental: as §1

[9] = system: MDA-MB-231
Experimental: as §1

[10] = system: MCF-10A
Experimental: as §1

[11] = system: CAL-148
Experimental: as §1

[12] = system: CAL-51
Experimental: as §1

[13] = system: BT-474
Experimental: as §1

[14] = system: MDA-MB-453
Experimental: as §1

[15] = system: DU-4475
Experimental: as §1

[16] = system: MFM-223
Experimental: as §1

[17] = system: Hs578T
Experimental: as §1

[18] = system: CAL-85-1
Experimental: as §1

| Compound | normalised response [1] | normalised response [2] | normalised response [3] | normalised response [4] | normalised response [5] | normalised response [6] | normalised response [7] | normalised response [8] | normalised response [9] | normalised response [10] | normalised response [11] | normalised response [12] | normalised response [13] | normalised response [14] | normalised response [15] | normalised response [16] | normalised response [17] | normalised response [18] |
| --- | --- | --- | --- | --- | --- | --- | --- | --- | --- | --- | --- | --- | --- | --- | --- | --- | --- | --- |
| CC(C)C[C@H](NC(=O)[C@@H](COC(C)(C)C)NC(=O)[C@H](Cc1ccc(O)cc1)NC(=O)[C@H](CO)NC(=O)[C@H](Cc1c[nH]c2ccccc12)NC(=O)[C@H](Cc1cnc[nH]1)NC(=O)[C@@H]1CCC(=O)N1)C(=O)N[C@@H](CCCNC(=N)N)C(=O)N1CCC[C@H]1C(=O)NNC(N)=O [Goserelin] (1 nM) | 129% | 99.2% | 95.9% | 105% | 102% | 93.4% | 56.7% | 74.5% | 81% | 102% | 76.8% | 110% | 96.3% | 97.6% | 97.4% | 99.2% | 69.7% | 94.2% |
| COc1ccc(C2=N[C@@H](c3ccc(Cl)cc3)[C@@H](c3ccc(Cl)cc3)N2C(=O)N2CCNC(=O)C2)c(OC(C)C)c1 [Nutlin-3] (1 nM) | 97.2% | 98.2% | 92.6% | 124% | 90.1% | 102% | 91.8% | 104% | 109% | 97.2% | 98.9% | 89.7% | 101% | 106% | 103% | 106% | 108% | 101% |
| C[C@@H](Oc1cc(-c2cnn(C3CCNCC3)c2)cnc1N)c1c(Cl)ccc(F)c1Cl [Crizotinib] (0.1 nM) | 112% | 95.4% | 52.5% | 116% | 106% | 108% | 81.3% | 71.1% | 55.9% | 97.9% | 103% | 113% | 102% | 112% | 102% | 82.6% | 107% | 106% |
| O=C(c1ccc(OCCN2CCCCC2)cc1)c1c(-c2ccc(O)cc2)sc2cc(O)ccc12 [Raloxifene] (1 nM) | 73.1% | 101% | 114% | 79.2% | 104% | 111% | 88% | 102% | 112% | 106% | 103% | 124% | 99% | 104% | 108% |  | 99% | 95.5% |
| CS(=O)(=O)OCCCCOS(C)(=O)=O [Busulfan] (10 nM) | 72.6% | 98.5% |  |  | 100% | 107% | 97.4% | 60.3% | 107% | 81.4% | 100% | 87% | 102% | 105% | 103% | 61.8% | 104% | 92.2% |
| CC(=O)O[C@H]1C(=O)[C@@]2(C)[C@H]([C@H](OC(=O)c3ccccc3)[C@]3(O)C[C@H](OC(=O)[C@H](O)[C@@H](NC(=O)c4ccccc4)c4ccccc4)C(C)=C1C3(C)C)[C@]1(OC(C)=O)CO[C@@H]1C[C@@H]2O [Paclitaxel] (0.1 nM) | 110% | 100% | 87.6% | 121% | 95% | 98.1% | 97% | 73.7% | 104% | 96.7% | 102% | 68.6% | 101% | 88% | 96.1% | 102% | 73.8% | 97% |
| C[C@]12O[C@H](C[C@]1(O)CO)n1c3ccccc3c3c4c(c5c6ccccc6n2c5c31)CNC4=O [Lestaurtinib] (0.1 nM) | 59.3% | 95.5% | 60.4% | 102% | 95.8% | 92.2% | 95.3% | 104% | 101% | 107% | 94.3% | 64.3% | 100% | 99.4% | 95.6% | 87.8% | 98% | 97.7% |
| CCN(CC)CCOc1ccc(C(=C(Cl)c2ccccc2)c2ccccc2)cc1 [Clomifene] (1 nM) | 93.9% | 100% | 91.7% |  | 102% | 95.2% | 86.2% | 104% | 105% | 103% | 101% | 102% | 102% | 110% | 103% | 98.4% | 70.9% | 94.5% |
| Cc1nc(C(=O)NCC(=O)O)c(O)c2ccc(Oc3ccccc3)cc12 [FG-4592] (1 nM) | 110% | 106% | 90.8% | 121% | 89.2% | 111% | 100% | 100% | 119% | 104% | 102% | 99.3% | 103% | 112% | 105% | 104% |  | 103% |
| O=C(O)C(=O)O.[NH-][C@@H]1CCCC[C@H]1[NH-].[Pt+2] [Oxaliplatin] (1 nM) | 106% | 93% |  | 105% | 89.9% | 100% | 83.4% | 70.2% | 98.6% | 87.6% | 97.7% | 105% | 98.1% | 94.1% | 98% | 105% | 71% | 105% |

Record cards, as listed above. Order of values: normalised response [1]	normalised response [2]	normalised response [3]	normalised response [4]	normalised response [5]	normalised response [6]	normalised response [7]	normalised response [8]	normalised response [9]	normalised response [10]	normalised response [11]	normalised response [12]	normalised response [13]	normalised response [14]	normalised response [15]	normalised response [16]	normalised response [17]	normalised response [18]
`C[C@]12O[C@H](C[C@]1(O)CO)n1c3ccccc3c3c4c(c5c6ccccc6n2c5c31)CNC4=O` [Lestaurtinib] (0.1 nM) as listed: 59.3%	95.5%	60.4%	102%	95.8%	92.2%	95.3%	104%	101%	107%	94.3%	64.3%	100%	99.4%	95.6%	87.8%	98%	97.7%
`CC(=O)O[C@H]1C(=O)[C@@]2(C)[C@H]([C@H](OC(=O)c3ccccc3)[C@]3(O)C[C@H](OC(=O)[C@H](O)[C@@H](NC(=O)c4ccccc4)c4ccccc4)C(C)=C1C3(C)C)[C@]1(OC(C)=O)CO[C@@H]1C[C@@H]2O` [Paclitaxel] (0.1 nM) as listed: 110%	100%	87.6%	121%	95%	98.1%	97%	73.7%	104%	96.7%	102%	68.6%	101%	88%	96.1%	102%	73.8%	97%

Source: the supplement of paper PMC4862054
